Results are given in words; binding and its absence hold for the method and conditions named. In cells and extracts the contact can be indirect. Some entries that bind do so weakly or less than the wild type.
Target: filamin A (mouse (endogenous in mouse kidney cortex and mDCT15 cells)) (UniProt Q8BTM8)
Experiment: co-IP; endogenous proteins from mouse kidney cortex tissue lysates or mDCT15 cell lysates (MPER with protease and phosphatase inhibitors); NCC or filamin antibody overnight at 4 °C, protein G beads 4 h, three washes with 1XPBS; Western blot for the partner

Amino acid sequences for entries named in this document (tags omitted).
UniProt Q8BTM8: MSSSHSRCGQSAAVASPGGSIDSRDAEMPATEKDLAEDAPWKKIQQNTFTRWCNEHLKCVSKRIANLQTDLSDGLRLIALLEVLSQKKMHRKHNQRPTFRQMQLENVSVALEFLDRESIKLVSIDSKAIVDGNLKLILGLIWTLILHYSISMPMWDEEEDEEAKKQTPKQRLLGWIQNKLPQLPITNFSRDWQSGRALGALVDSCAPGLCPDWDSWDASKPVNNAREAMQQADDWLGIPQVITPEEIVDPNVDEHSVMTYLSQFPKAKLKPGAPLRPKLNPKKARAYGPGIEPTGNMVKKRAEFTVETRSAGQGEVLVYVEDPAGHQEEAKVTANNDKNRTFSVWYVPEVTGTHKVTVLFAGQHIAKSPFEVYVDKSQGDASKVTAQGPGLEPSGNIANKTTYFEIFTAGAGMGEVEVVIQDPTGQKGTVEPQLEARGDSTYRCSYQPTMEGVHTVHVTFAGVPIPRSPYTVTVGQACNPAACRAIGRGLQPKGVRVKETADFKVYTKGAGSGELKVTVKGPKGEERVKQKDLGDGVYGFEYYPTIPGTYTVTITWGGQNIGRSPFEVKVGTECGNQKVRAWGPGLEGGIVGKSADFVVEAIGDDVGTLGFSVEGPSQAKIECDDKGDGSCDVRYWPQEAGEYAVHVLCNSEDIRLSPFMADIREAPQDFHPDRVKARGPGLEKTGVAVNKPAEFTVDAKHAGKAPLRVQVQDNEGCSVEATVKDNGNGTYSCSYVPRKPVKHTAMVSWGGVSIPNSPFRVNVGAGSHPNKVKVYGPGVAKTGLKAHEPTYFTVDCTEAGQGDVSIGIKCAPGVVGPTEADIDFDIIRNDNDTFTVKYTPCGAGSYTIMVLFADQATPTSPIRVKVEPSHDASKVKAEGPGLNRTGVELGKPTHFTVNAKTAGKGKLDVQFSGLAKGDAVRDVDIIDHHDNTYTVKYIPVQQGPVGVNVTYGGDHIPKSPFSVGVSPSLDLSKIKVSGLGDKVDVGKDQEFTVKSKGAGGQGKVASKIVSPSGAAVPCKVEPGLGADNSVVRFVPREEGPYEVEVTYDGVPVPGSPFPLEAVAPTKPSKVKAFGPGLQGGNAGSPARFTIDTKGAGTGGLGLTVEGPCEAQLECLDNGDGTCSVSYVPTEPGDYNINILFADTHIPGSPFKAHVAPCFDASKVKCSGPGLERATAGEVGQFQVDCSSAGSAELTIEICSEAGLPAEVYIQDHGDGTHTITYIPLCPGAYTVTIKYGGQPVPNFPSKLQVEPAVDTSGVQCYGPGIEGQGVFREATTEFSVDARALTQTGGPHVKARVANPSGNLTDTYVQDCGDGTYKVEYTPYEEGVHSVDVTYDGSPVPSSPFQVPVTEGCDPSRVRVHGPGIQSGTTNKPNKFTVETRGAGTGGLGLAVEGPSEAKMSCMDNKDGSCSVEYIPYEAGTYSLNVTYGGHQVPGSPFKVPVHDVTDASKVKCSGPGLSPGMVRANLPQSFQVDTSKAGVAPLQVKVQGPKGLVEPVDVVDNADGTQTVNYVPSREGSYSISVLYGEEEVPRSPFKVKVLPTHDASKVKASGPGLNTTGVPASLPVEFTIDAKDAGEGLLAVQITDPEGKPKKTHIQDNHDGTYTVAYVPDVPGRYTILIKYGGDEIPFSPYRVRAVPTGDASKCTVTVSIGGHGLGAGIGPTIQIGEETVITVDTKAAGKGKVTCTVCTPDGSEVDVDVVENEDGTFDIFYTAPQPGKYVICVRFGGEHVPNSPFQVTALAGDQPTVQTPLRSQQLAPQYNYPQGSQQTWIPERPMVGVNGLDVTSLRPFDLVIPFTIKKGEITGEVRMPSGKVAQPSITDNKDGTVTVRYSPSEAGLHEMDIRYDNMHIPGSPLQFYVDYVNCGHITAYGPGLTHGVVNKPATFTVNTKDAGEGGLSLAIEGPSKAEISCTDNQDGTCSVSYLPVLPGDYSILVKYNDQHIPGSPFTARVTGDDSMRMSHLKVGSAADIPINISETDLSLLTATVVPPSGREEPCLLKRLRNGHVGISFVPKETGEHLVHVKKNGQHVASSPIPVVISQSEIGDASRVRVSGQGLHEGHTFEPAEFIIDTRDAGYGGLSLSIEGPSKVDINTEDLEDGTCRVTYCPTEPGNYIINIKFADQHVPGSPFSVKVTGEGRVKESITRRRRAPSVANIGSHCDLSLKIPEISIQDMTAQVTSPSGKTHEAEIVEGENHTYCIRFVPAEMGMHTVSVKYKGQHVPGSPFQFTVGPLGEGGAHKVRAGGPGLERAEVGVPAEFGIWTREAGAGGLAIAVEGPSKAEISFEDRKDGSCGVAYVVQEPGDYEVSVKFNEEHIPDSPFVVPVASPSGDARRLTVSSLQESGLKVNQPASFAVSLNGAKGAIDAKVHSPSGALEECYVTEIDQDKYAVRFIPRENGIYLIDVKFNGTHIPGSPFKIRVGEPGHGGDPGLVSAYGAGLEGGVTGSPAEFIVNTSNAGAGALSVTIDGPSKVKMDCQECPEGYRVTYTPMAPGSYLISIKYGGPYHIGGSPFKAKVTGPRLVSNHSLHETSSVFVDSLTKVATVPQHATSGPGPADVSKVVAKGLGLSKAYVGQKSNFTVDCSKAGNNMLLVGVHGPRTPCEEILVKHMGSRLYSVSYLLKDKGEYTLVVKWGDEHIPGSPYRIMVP

- binding: binds
B1: thiazide-sensitive sodium chloride cotransporter (NCC) (protein, UniProt P59158 1-1002)
chain: MAELPVTELPGDALCSGRFTISTLMGGDEPPPAACDSSQPSHLTHGSTLYMRTFGYNTIDVVPAYEHYANSALPGEPRKVRPTLADLHSFLKQEGSHLHALAFDGRQGRELTDGLVEDETGTNSEKSPGEPVRFGWVKGVMIRCMLNIWGVILYLRLPWITAQAGIVLTWLIILLSVMVTSITGLSISAISTNGKVKSGGTYFLISRSLGPELGGSIGLIFAFANAVGVAMHTVGFAETVRDLLQEYGTPIVDPINDIRIIGVVTVTVLLAISLAGMEWESKAQVLFFLVIMVSFANYLVGTLIPASEDKASKGFYSYHGDIFVQNLVPDWRGIDGSFFGMFSIFFPSATGILAGANISGDLKDPAVAIPKGTLMAIFWTTISYLAISATIGSCVVRDASGDVNDTMTPGPGPCEGLACGYGWNFTECSQQRSCRYGLINYYQTMSMVSAFAPLITAGIFGATLSSALACLVSAAKVFQCLCEDQLYPLIGFFGKGYGKNREPVRGYLLAYAIAVAFIIIAELNTIAPIISNFFLCSYALINFSCFHASITNSPGWRPSFRYYSKWAALFGAVISVVIMFLLTWWAALIAIGVVLFLLLYVIYKKPEVNWGSSVQAGSYNLALSYSVGLNEVEDHIKNYRPQCLVLTGPPNFRPALVDFVSTFTQNLSLMICGHVLIGPGKQRVPELRLIASGHTKWLNKRKIKAFYSDVIAEDLRSGVQILMQASGLGRMKPNILVVGFKRNWQSAHPATVEDYIGVLHDAFDFNYGVCVMRMREGLNVSEALQTHTTPEALIQEEQASTIFQSEQGKKTIDIYWLFDDGGLTLLIPYLLHRKKRWGKCKIRVFVGGQINRMDEERKAIISLLSKFRLGFHEVHVLPDINQKPQAEHTKRFEDMIAPFRLNDGFKDEATVTEMRRDCPWKISDEEINKNRIKSLRQVRLSEILLDYSRDAALIILTLPIGRKGKCPSSLYMAWLETLSQDLRPPVLLIRGNQENVLTFYCQ
